This passage reports T/C and survivor count results from PubChem BioAssay AID290 (DTP/NCI, 2004).

The test deals with mice, P1798 lymphosarcoma sc, survival or tumor weight T/C. Kind of test: NCI In Vivo Anticancer Drug Screen. Data for tumor model P1798 Lymphosarcoma (subcutaneous) in unknown mice. The method, then: The antitumor activity of compounds was measured in mice bearing transplantable tumors. Survival or tumor size were measured and the results are expressed as the measurement made in the treated group (T) divided by the measurement made in the vehicle treated control group (C). The tumor model used in this assay is P1798 Lymphosarcoma (subcutaneous) in unknown mice

Where [1] appears, read: T/C endpoint: mean tumor weight, dose: 62.5 mg/kg/injection, schedule: Q01DX010 (ip), vehicle: carboxymethylcellulose (CMC), higher T/C = larger tumour.
[2] abbreviates: T/C endpoint: mean tumor weight, dose: 250.0 mg/kg/injection, schedule: Q01DX010 (ip), vehicle: carboxymethylcellulose (CMC), higher T/C = larger tumour.
Where [3] appears, read: T/C endpoint: mean tumor weight, dose: 500.0 mg/kg/injection, schedule: Q01DX010 (ip), vehicle: carboxymethylcellulose (CMC), higher T/C = larger tumour.

The list does not hold the whole screen: it gathers tests that were run many times, whatever their T/C, doses with no T/C, and many T/C values between a quarter and a half above the control. Further doses and runs are listed elsewhere. T/C is the treated group as % of the vehicle group. Schedules are NCI's codes, taken here to give the interval after Q, in days (D) or hours (H), and the number of doses after X. Some T/C values carry the count of animals alive at the toxicity check (mostly the fifth day); without a count, all were alive then. Some doses were run more than once; the values are given in rising order. Some entries give survivors of the animals treated and no T/C: the source files T/C as zero there, which appears to mark a toxic dose or a test without result, not a measured value. Some survivor counts are full or nearly so, which does not show that the dose was tolerated: survival well below the control is almost never listed, so the zero probably covers shortened survival too. Survivors were counted at the toxicity check, usually on the fifth day, unless a day is given; later deaths do not show. Where survival is the endpoint, the PubChem record calls one and a half times the control and up active, and a quarter to a half above the control has no call in these data; cut-offs in other NCI protocols can differ. *1 amine or outer side, *2 acyl side, *3 side chain or, on linkers, in order; H or OH if unused. Where a SMILES comes first, the peptide text is derived from it. Bridges are numbered along the chain shown (N, C = ends). Roman numbers before positions name the chains, in order. [ ]: non-standard residue; d: D form. Actinocin(9to1) = Cc1c2oc3c(C)ccc(C(=O)[*:1])c3nc-2c(C(=O)[*:2])c(N)c1=O; aThr = C[C@H](O)[C@H](N)C(=O)O; NMeV = CN[C@H](C(=O)O)C(C)C; Sar = CNCC(=O)O

For the compound `CN(Cc1cnc2nc(N)nc(N)c2n1)c1ccc(C(=O)N[C@@H](CCC(=O)O)C(=O)O)cc1`, the T/C reads like this: (T/C endpoint: mean tumor weight, dose: 0.5 mg/kg/injection, schedule: Q01DX010 (ip), vehicle: other, evaluated on day 14, higher T/C = larger tumour) 31 [9 of 10 alive], 44, 54, 59, 61 [9 of 10 alive], 81 % of control; (T/C endpoint: mean tumor weight, dose: 0.62 mg/kg/injection, schedule: Q01DX010 (ip), vehicle: other, evaluated on day 14, higher T/C = larger tumour) 27, 29, 30 [8 of 10 alive], 38 [9 of 10 alive], 68, 70 % of control; (T/C endpoint: mean tumor weight, dose: 0.62 mg/kg/injection, schedule: Q01DX010 (ip), vehicle: other, evaluated on day 20, higher T/C = larger tumour) 81 % of control [8 of 10 alive]; (T/C endpoint: mean tumor weight, dose: 1.0 mg/kg/injection, schedule: Q01DX010 (ip), vehicle: other, evaluated on day 14, higher T/C = larger tumour) 2 [9 of 10 alive], 13 [9 of 10 alive], 21, 35 [9 of 10 alive], 40 [8 of 10 alive], 60 % of control; (T/C endpoint: mean tumor weight, dose: 1.25 mg/kg/injection, schedule: Q01DX010 (ip), vehicle: other, evaluated on day 14, higher T/C = larger tumour) 7, 7 [7 of 10 alive], 18 [8 of 10 alive], 18 [9 of 10 alive], 20, 55 % of control [8 of 10 alive]; (T/C endpoint: mean tumor weight, dose: 2.0 mg/kg/injection, schedule: Q01DX010 (ip), vehicle: other, evaluated on day 14, higher T/C = larger tumour) 5, 8 [9 of 10 alive], 11, 17 % of control [8 of 10 alive]. For the same compound, the T/C is 3 [7 of 10 alive] and 9 % of control [9 of 10 alive] (T/C endpoint: mean tumor weight, dose: 2.5 mg/kg/injection, schedule: Q01DX010 (ip), vehicle: other, evaluated on day 14, higher T/C = larger tumour); 125 % of control (T/C endpoint: median survival time, dose: 8.0 mg/kg/injection, schedule: Q04DX007 (ip), vehicle: saline, higher T/C = longer survival). Further, the survivor count was 1 of 10 (T/C endpoint: mean tumor weight, dose: 1.25 mg/kg/injection, schedule: Q01DX010 (ip), vehicle: other, higher T/C = larger tumour); 1 of 10 (T/C endpoint: mean tumor weight, dose: 1.8 mg/kg/injection, schedule: Q01DX010 (sc), vehicle: other, higher T/C = larger tumour); 1 of 10 (T/C endpoint: mean tumor weight, dose: 2.1 mg/kg/injection, schedule: Q01DX011 (ip), vehicle: carboxymethylcellulose (CMC), higher T/C = larger tumour); 0 of 10 (T/C endpoint: mean tumor weight, dose: 2.5 mg/kg/injection, schedule: Q01DX010 (ip), vehicle: other, higher T/C = larger tumour); 0 of 10 (T/C endpoint: mean tumor weight, dose: 3.0 mg/kg/injection, schedule: Q01DX010 (sc), vehicle: other, higher T/C = larger tumour); 0 of 10 (T/C endpoint: mean tumor weight, dose: 5.0 mg/kg/injection, schedule: Q01DX010 (ip), vehicle: other, higher T/C = larger tumour). Besides, the survivor count is 10 of 10 (T/C endpoint: median survival time, dose: 2.5 mg/kg/injection, schedule: Q01DX010 (ip), vehicle: sodium bicarbonate, higher T/C = longer survival); 10 of 10 (T/C endpoint: median survival time, dose: 4.0 mg/kg/injection, schedule: Q04DX007 (ip), vehicle: sodium bicarbonate, higher T/C = longer survival); 10 of 10 (T/C endpoint: median survival time, dose: 5.0 mg/kg/injection, schedule: Q01DX010 (ip), vehicle: sodium bicarbonate, higher T/C = longer survival); 10 of 10 (T/C endpoint: median survival time, dose: 8.0 mg/kg/injection, schedule: Q04DX007 (ip), vehicle: sodium bicarbonate, higher T/C = longer survival); 10 of 10 (T/C endpoint: median survival time, dose: 16.0 mg/kg/injection, schedule: Q04DX007 (ip), vehicle: sodium bicarbonate, higher T/C = longer survival); 9 of 9 (T/C endpoint: median survival time, dose: 32.0 mg/kg/injection, schedule: Q04DX007 (ip), vehicle: sodium bicarbonate, higher T/C = longer survival). The survivor count by setting is: (T/C endpoint: median survival time, dose: 64.0 mg/kg/injection, schedule: Q04DX007 (ip), vehicle: saline, higher T/C = longer survival) 10 of 10; (T/C endpoint: median survival time, dose: 64.0 mg/kg/injection, schedule: Q04DX007 (ip), vehicle: sodium bicarbonate, higher T/C = longer survival) 8 of 8; (T/C endpoint: median survival time, dose: 128.0 mg/kg/injection, schedule: Q04DX007 (ip), vehicle: saline, higher T/C = longer survival) 10 of 10.
As to `C1CN1c1nc(N2CC2)nc(N2CC2)n1`, the survivor count (T/C endpoint: mean tumor weight, dose: 0.5 mg/kg/injection, schedule: Q01DX010 (ip), vehicle: saline, higher T/C = larger tumour) is given as 1 of 10.
Regarding `Cc1c2oc3c(C)ccc(C(=O)N[C@@H]4C(=O)N[C@H](C(C)C)C(=O)N5CCC[C@H]5C(=O)N(C)CC(=O)N(C)[C@@H](C(C)C)C(=O)O[C@H]4C)c3nc-2c(C(=O)N[C@@H]2C(=O)N[C@H](C(C)C)C(=O)N3CCC[C@H]3C(=O)N(C)CC(=O)N(C)[C@@H](C(C)C)C(=O)O[C@H]2C)c(N)c1=O` (I: [aThr][dV]P[Sar][NMeV] / II: [aThr][dV]P[Sar][NMeV]; ester I:1-I:C, II:1-II:C; linker I:N-II:N via Actinocin(9to1)), the survivor count (T/C endpoint: mean tumor weight, dose: 5.0 micrograms/kg/injection, schedule: Q01DX010 (ip), vehicle: saline, higher T/C = larger tumour) was 4 of 10 and the survivor count (T/C endpoint: mean tumor weight, dose: 50.0 micrograms/kg/injection, schedule: Q01DX010 (ip), vehicle: saline, higher T/C = larger tumour) is listed as 0 of 10.
Turning to `O=P1(N(CCCl)CCCl)NCCCO1` (stereo not drawn), the T/C is 45 [9 of 10 alive], 48 [9 of 10 alive], 63, 73, 79 [9 of 10 alive], 119, 126 % of control (T/C endpoint: mean tumor weight, dose: 12.5 mg/kg/injection, schedule: Q01DX010 (ip), vehicle: saline, evaluated on day 14, higher T/C = larger tumour); 95 % of control [7 of 10 alive] (T/C endpoint: mean tumor weight, dose: 12.5 mg/kg/injection, schedule: Q01DX010 (ip), vehicle: saline, evaluated on day 20, higher T/C = larger tumour); 21, 29, 30 [8 of 10 alive], 35, 58, 62, 65, 70 % of control (T/C endpoint: mean tumor weight, dose: 25.0 mg/kg/injection, schedule: Q01DX010 (ip), vehicle: saline, evaluated on day 14, higher T/C = larger tumour); 114 % of control (T/C endpoint: mean tumor weight, dose: 25.0 mg/kg/injection, schedule: Q01DX010 (ip), vehicle: saline, evaluated on day 20, higher T/C = larger tumour); 5 [9 of 10 alive], 23, 30 [7 of 10 alive], 38, 42, 74 % of control (T/C endpoint: mean tumor weight, dose: 50.0 mg/kg/injection, schedule: Q01DX010 (ip), vehicle: saline, evaluated on day 14, higher T/C = larger tumour); 129 % of control (T/C endpoint: median survival time, dose: 200.0 mg/kg/injection, schedule: Q01DX001 (ip), vehicle: saline, higher T/C = longer survival). Also, the survivor count is, setting by setting: (T/C endpoint: mean tumor weight, dose: 50.0 mg/kg/injection, schedule: Q01DX010 (ip), vehicle: saline, higher T/C = larger tumour) 3 of 10 and 6 of 10; (T/C endpoint: mean tumor weight, dose: 53.0 mg/kg/injection, schedule: Q01DX011 (ip), vehicle: saline, higher T/C = larger tumour) 1 of 10; (T/C endpoint: mean tumor weight, dose: 100.0 mg/kg/injection, schedule: Q01DX010 (ip), vehicle: saline, higher T/C = larger tumour) 1 of 10 and 3 of 10; (T/C endpoint: median survival time, dose: 100.0 mg/kg/injection, schedule: Q01DX010 (ip), vehicle: saline, higher T/C = longer survival) 10 of 10; (T/C endpoint: median survival time, dose: 200.0 mg/kg/injection, schedule: Q01DX010 (ip), vehicle: saline, higher T/C = longer survival) 6 of 10; (T/C endpoint: median survival time, dose: 400.0 mg/kg/injection, schedule: Q01DX001 (ip), vehicle: saline, higher T/C = longer survival) 5 of 5.
`OCC1OC(n2cnc3c(=S)nc[nH]c32)C(O)C1O` (stereo not drawn): the survivor count is 1 of 10 under setting [1]; 0 of 10 (T/C endpoint: mean tumor weight, dose: 125.0 mg/kg/injection, schedule: Q01DX010 (ip), vehicle: carboxymethylcellulose (CMC), higher T/C = larger tumour); 0 of 10 under setting [2]; 0 of 10 under setting [3].
Turning to `CCCSc1ncnc2nc[nH]c12`, the survivor count was 3 of 10 under setting [1]; 0 of 10 and 3 of 10 under setting [2]; 0 of 10 under setting [3].
As for `CC(C)(c1ccccc1)c1ccc(O)cc1`, the survivor count (T/C endpoint: mean tumor weight, dose: 400.0 mg/kg/injection, schedule: Q01DX010 (ip), vehicle: carboxymethylcellulose (CMC), higher T/C = larger tumour) was 4 of 10.
Consider `Oc1cc(CN(CCCl)CCCl)c(O)cc1CN(CCCl)CCCl`, for which the survivor count (T/C endpoint: mean tumor weight, dose: 15.0 mg/kg/injection, schedule: Q01DX010 (sc), vehicle: steroid suspending solution, higher T/C = larger tumour) is 0 of 10.
Take `CN(C)c1nc(N(C)C)nc(N(C)C)n1`: the T/C (T/C endpoint: mean tumor weight, dose: 125.0 mg/kg/injection, schedule: Q01DX010 (ip), vehicle: carboxymethylcellulose (CMC), evaluated on day 14, higher T/C = larger tumour) was 126 % of control. Besides, the survivor count reads like this: (T/C endpoint: mean tumor weight, dose: 1000.0 mg/kg/injection, schedule: Q01DX010 (ip), vehicle: carboxymethylcellulose (CMC), higher T/C = larger tumour) 5 of 10; (T/C endpoint: mean tumor weight, dose: 2000.0 mg/kg/injection, schedule: Q01DX010 (ip), vehicle: carboxymethylcellulose (CMC), higher T/C = larger tumour) 0 of 10.
`N#CCSc1ncnc2nc[nH]c12`: the survivor count is 1 of 10 (T/C endpoint: mean tumor weight, dose: 100.0 mg/kg/injection, schedule: Q01DX010 (ip), vehicle: carboxymethylcellulose (CMC), higher T/C = larger tumour) and 0 of 10 (T/C endpoint: mean tumor weight, dose: 200.0 mg/kg/injection, schedule: Q01DX010 (ip), vehicle: carboxymethylcellulose (CMC), higher T/C = larger tumour).
Consider `C=CC(CN1CC1)OC(C)=O` (stereo not drawn), for which the survivor count (T/C endpoint: mean tumor weight, dose: 12.0 mg/kg/injection, schedule: Q01DX010 (ip), vehicle: saline, higher T/C = larger tumour) is reported as 3 of 6.
